Assay results published in ChEMBL document CHEMBL1121911, “Analgesic narcotic antagonists. 8. 7 alpha-Alkyl-4,5 alpha-epoxymorphinan-6-ones” (1981).

Tested on: Mus musculus
Experiment: Narcotic agonistic activity in acetic acid mouse writhing assay after subcutaneous administration of the drug
Type: functional
Settings: sc
Summary of the method: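 Subcutaneous dosing. Salts were given in distilled H2O, and free bases were dissolved with 1 N HCl and then diluted. Each ED50 (agonist) or AD50 (antagonist) came from at least three doses, with at least five animals per dose.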

CN1CC[C@]23c4c5ccc(O)c4O[C@H]2[C@@H](O)C=C[C@H]3[C@H]1C5 [MORPHINE] showed an ED50 of 2.1 µmol/kg.
